Assay results taken from patent US10555936B2, “Chemotherapeutic compositions and methods for treating human gliomas” (The Methodist Hospital, priority 2011, dated 2020).
At least one compound was matched to its structure with a doubt left.

Tested on: BT-111 cells
Test: XTT mitochondrial complex activity assay
Format: cell-based, human
Details: BT-111, concentrations >10 μM

Cn1nnc2c(C(N)=O)ncn2c1=O [temozolomide]
effect on levels of mitochondria: increase in the levels of mitochondria
